In assay [1] the target is T1, recombinant Plasmodium falciparum apicortin (Plasmodium falciparum) (UniProt C0H4E4).
T1 sequence: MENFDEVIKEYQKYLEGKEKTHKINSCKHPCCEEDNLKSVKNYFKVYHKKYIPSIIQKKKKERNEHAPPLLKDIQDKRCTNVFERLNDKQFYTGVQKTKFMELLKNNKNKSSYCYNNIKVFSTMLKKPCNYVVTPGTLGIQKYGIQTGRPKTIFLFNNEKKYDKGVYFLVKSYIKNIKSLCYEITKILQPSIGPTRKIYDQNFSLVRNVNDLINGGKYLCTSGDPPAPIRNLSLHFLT
Nature of the assay: pull-down; recombinant PfApicortin (50 µg) bound to Ni-NTA beads, incubated with parasite lysate (100 µg) at 4 °C overnight, washed; tubulins detected by western blot; beads without apicortin as control; only the target purified. Background: Immunoblotting shows a protein as a band on a membrane.

Sequences of proteins named here, by UniProt entry; tags and fusion partners are left off.
UniProt Q6ZLZ9: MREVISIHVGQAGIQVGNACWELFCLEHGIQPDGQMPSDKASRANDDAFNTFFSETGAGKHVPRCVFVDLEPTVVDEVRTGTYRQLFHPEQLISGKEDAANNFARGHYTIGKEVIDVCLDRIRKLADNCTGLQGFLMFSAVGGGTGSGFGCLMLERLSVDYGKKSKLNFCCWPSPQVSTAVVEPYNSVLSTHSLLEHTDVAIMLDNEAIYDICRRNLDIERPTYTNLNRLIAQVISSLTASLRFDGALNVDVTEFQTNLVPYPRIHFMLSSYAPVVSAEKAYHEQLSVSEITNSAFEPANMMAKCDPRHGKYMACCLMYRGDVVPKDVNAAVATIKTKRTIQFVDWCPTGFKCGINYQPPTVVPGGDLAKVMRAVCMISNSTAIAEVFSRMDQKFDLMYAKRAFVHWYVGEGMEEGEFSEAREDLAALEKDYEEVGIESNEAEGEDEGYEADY
UniProt Q7KQL5: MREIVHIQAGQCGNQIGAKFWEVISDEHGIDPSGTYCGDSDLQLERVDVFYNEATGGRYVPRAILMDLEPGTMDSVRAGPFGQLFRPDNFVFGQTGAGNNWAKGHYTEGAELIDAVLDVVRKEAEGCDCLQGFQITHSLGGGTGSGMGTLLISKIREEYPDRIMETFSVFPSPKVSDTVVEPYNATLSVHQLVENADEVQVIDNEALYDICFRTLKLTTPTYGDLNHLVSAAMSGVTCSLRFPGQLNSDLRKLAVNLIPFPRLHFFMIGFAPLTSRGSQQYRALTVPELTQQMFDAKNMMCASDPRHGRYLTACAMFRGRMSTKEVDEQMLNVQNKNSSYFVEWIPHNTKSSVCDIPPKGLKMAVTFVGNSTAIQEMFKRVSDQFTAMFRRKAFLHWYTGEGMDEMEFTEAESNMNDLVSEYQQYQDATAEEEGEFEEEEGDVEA

For assay [2], the target named is T1, recombinant Plasmodium falciparum apicortin (Plasmodium falciparum). Nature of the assay: ELISA; indirect ELISA: recombinant PfApicortin (100 ng) coated in bicarbonate buffer; recombinant tubulins 50-1600 ng, 1 h at 37 °C; detected with anti-tubulin antibody, absorbance at 450 nm; also with apicortin pre-incubated with 10 µM TMX (absorbance reduced); both purified. A general note: ELISA stands for enzyme-linked immunosorbent assay.

Results are given in words; binding and its absence hold for the method and conditions named. For part of these data: Binding seen in cells or lysates may run through a third protein. Some entries that bind do so weakly or less than the wild type.

Take “Plasmodium falciparum α-tubulin-I of the parasite lysate (from UniProt Q6ZLZ9 1-453)”: the binding entry in assay [1] was “binds”.
On the same count and under the same terms, the entry for “Plasmodium falciparum β-tubulin of the parasite lysate (from UniProt Q7KQL5 1-445)” is “binds”.
In the case of “recombinant Plasmodium falciparum α-tubulin-I (from UniProt Q6ZLZ9 1-453)”, the binding entry in assay [2] is recorded as “binds”.
